Drawing on paper PMC7819943, “Rice protein-binding microarrays: a tool to detect cis-acting elements near promoter regions in rice”, this text covers binding signal for 42 sequences.

Sequences of proteins named here, by UniProt entry; tags and fusion partners are left off.
UniProt Q0JBA9, entry or part of it: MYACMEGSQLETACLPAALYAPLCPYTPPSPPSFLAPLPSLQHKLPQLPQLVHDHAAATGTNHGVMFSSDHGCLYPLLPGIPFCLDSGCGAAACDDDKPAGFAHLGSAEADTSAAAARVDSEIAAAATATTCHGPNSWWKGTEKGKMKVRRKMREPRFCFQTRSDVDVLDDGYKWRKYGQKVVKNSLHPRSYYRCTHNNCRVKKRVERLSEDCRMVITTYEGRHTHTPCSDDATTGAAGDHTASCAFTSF

This is one part of the list.

The target in this assay is OsWRKY34 (Oryza sativa, UniProt Q0JBA9 1-250). In words: protein-binding microarray (RPBM); PBS, 2% BSA, 51.3 ng/ul salmon testes DNA, 50 uM zinc acetate, 200 nM TF, 25 C, 1 h; high values mean tight binding. As to conditions: protein: recombinant; tags: N-terminal polyhistidine and DsRed monomer fusion (pET32a); label: CyDye5-dUTP incorporated in the synthesized complementary strand; 3' TTTTT single-stranded linker to array surface; dsDNA, one strand shown. Summed up: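 The binding signal is fluorescence intensity per feature, in arbitrary units, read on an Axon 4000B scanner. Polyhistidine- and DsRed-tagged transcription factors (N-terminal fusions) from E. coli BL21-CodonPlus were purified on Ni–NTA and applied at 200 nM for 1 h at 25 °C to a double-stranded, BSA-blocked custom Agilent array in buffer with 50 µM zinc acetate.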
For “ACTAATCATTTTCTTAGGCCCTGTTTCAACTCATTTATTTCGGAGTCACCTAGTGCAG”, the binding signal is 10300 fluorescence intensity (a.u.). For “ACTATTAAACTGTATGCTTTCCTTAAAAAAGTTTCTATATCGGAGTCACCTAGTGCAG” the value was 8830 fluorescence intensity (a.u.). As to “GCGTCCAATCCCTGAATCCGCTGGCCCGCGTCGAAACCTACGGAGTCACCTAGTGCAG”, the binding signal is 8710 fluorescence intensity (a.u.). For “AAATTGTCCTTTTCATTCAGGCCTTGTTTAGTTCGCGAAACGGAGTCACCTAGTGCAG” the value was 8410 fluorescence intensity (a.u.); for “CATCCATTGTTTCATTTGCTAACTGATGTAGTTATTACTTCGGAGTCACCTAGTGCAG”, 9080 fluorescence intensity (a.u.); for “GAGAGGCCCATTTAGCTATCACTGTATTGGTTAACCGGTTCGGAGTCACCTAGTGCAG”, 8640 fluorescence intensity (a.u.). For the sequence “TGTATCATTTGTATATTGTCTTTGATATGTTGTCTTCCTCCGGAGTCACCTAGTGCAG”, the binding signal is 11100 fluorescence intensity (a.u.). For “CCCCGACTCATCGTCTTCCACGGCCTCACCGCGAAGCCGCCGGAGTCACCTAGTGCAG”, the binding signal is 8200 fluorescence intensity (a.u.). The figure for “AAAACCCATCCATAATCTTGGACTAATTTGCGAGACGAATCGGAGTCACCTAGTGCAG” is 8030 fluorescence intensity (a.u.); for “GCCTCAGTAGCGTGCGTTCAACACTCTCCTTTCTCAAAACCGGAGTCACCTAGTGCAG” it is 8830 fluorescence intensity (a.u.). The figure for “AGAGTTTTATTCATGTTTTGTTTTCTATCGCATGTATTGACGGAGTCACCTAGTGCAG” is 13700 fluorescence intensity (a.u.). For “CATTTTGCCACACTTGAGGTAGATCAGTTTGACCAAATGTCGGAGTCACCTAGTGCAG” the value was 11000 fluorescence intensity (a.u.); for “CTCCCTATTTATATGTGCACCACGATCCATCATATCGCTTCGGAGTCACCTAGTGCAG”, 9790 fluorescence intensity (a.u.); for “CCTCCAACGCCGCACGCCCGCACCCTAATCGCCGCCCGCGCGGAGTCACCTAGTGCAG”, 9040 fluorescence intensity (a.u.). For “TTTTCTATTTTTTTTATTTTTTAATACGTATGTATATAAACGGAGTCACCTAGTGCAG”, the binding signal is 8320 fluorescence intensity (a.u.). With “CTTTATGTATAGGTGTTTCTATTCTCATATGACTGATGTACGGAGTCACCTAGTGCAG”, the binding signal was 8530 fluorescence intensity (a.u.).

In the case of “ACCCTAGAGCTCACCCTAGCGCGCCGCCGCCGCAGCCATCCGGAGTCACCTAGTGCAG”, the binding signal is 10100 fluorescence intensity (a.u.). Regarding “GAGAGTAAGGATCAGGAGGAGGTGGAGGAGGAGGAGGATGCGGAGTCACCTAGTGCAG”, the binding signal is 8300 fluorescence intensity (a.u.). In the case of “TCTACGTTGCGGCATTGGCTGGGATTCTTGAGGGATTTCGCGGAGTCACCTAGTGCAG”, the binding signal was 9420 fluorescence intensity (a.u.).

As for “AAATCAAATGCGCACCGTGTGCTCTCATGTTGAAATTTCACGGAGTCACCTAGTGCAG”, the binding signal was 8400 fluorescence intensity (a.u.). The figure for “TCCGCCGCCGTCTCCGCCGCCTCCAGCCATCGATCCCGGCCGGAGTCACCTAGTGCAG” is 8250 fluorescence intensity (a.u.); for “CTCGTCTCGTCTCGCCGACCGACCCATCCATCCATCGATCCGGAGTCACCTAGTGCAG” it is 9150 fluorescence intensity (a.u.); for “CTCTTCTCCTCCAAGGATGGGGAGGTGGGGATGGTGGGGACGGAGTCACCTAGTGCAG” it is 19400 fluorescence intensity (a.u.). The figure for “AATTGCCACCTGTTTCCGCATCCGCCTCTACCGAGGTTTTCGGAGTCACCTAGTGCAG” is 8220 fluorescence intensity (a.u.); for “CTTCTCTGGTCCCGGCCGGCCTTCCCCTAGATCTTCAGATCGGAGTCACCTAGTGCAG” it is 8430 fluorescence intensity (a.u.). For “CACGGCCACACATTTCTCCATTTCTAATCACCTTGGATGCCGGAGTCACCTAGTGCAG” the value was 9940 fluorescence intensity (a.u.).

“ATTAAAAAAGGGAGAAACGGGCGGGGTGCTTGGCTTGACCCGGAGTCACCTAGTGCAG”: the binding signal is 8840 fluorescence intensity (a.u.). For “TGTCTGTTGAATGCTTGTCGTCTATGTTTGTTCTACCGATCGGAGTCACCTAGTGCAG” the value was 10700 fluorescence intensity (a.u.). For “CTTTGCAATGTCCTGACATAGTGTTGTTGTGTTCTGTAAGCGGAGTCACCTAGTGCAG” the value was 8220 fluorescence intensity (a.u.); for “TCACTTTAAATTTTTCACTTCCTTCTTCATTTTATTCACTCGGAGTCACCTAGTGCAG”, 8800 fluorescence intensity (a.u.); for “GCTTACTTCCATCATGTTTCTATCTCTAATATCTTTGATACGGAGTCACCTAGTGCAG”, 9310 fluorescence intensity (a.u.). The figure for “CATTGCCGCGCCGAGCTCTTCTTCTTCACCATCAGCGAAGCGGAGTCACCTAGTGCAG” is 8740 fluorescence intensity (a.u.); for “ATGCGTTTTCTTGGCTGGCACTGGTAGTATGTACTGTACTCGGAGTCACCTAGTGCAG” it is 8210 fluorescence intensity (a.u.); for “ACTGTGCAAAAGTTGGTATCTTTATTTCTCCATATAGTTTCGGAGTCACCTAGTGCAG” it is 8630 fluorescence intensity (a.u.). “CCTCTCCCTTCTCCTCTTTATCTATTTCCATTTGCATTTCCGGAGTCACCTAGTGCAG”: the binding signal was 8920 fluorescence intensity (a.u.). The figure for “TCTTATATGTTATGCAAGTATGTTTCTATCTCGTATCTTCCGGAGTCACCTAGTGCAG” is 16500 fluorescence intensity (a.u.).

As for “GATCTTGATGAGTTATACCACTTTATTGTTGATGACCTTTCGGAGTCACCTAGTGCAG”, the binding signal is 8120 fluorescence intensity (a.u.). Regarding “CTGATCATTGCTGCTCATGGCCTCACCGATCGTTCGATCTCGGAGTCACCTAGTGCAG”, the binding signal is 8070 fluorescence intensity (a.u.).

For “TTTGTCTCGCAATTTACACGTAAACTGTGTCATTGATTTTCGGAGTCACCTAGTGCAG”, the binding signal was 8920 fluorescence intensity (a.u.).

In the case of “TCGTCAGTTGGTCTCCTTACCAACTTGATTAGTAGTAGTACGGAGTCACCTAGTGCAG”, the binding signal was 8030 fluorescence intensity (a.u.). For “TCTTGCCCTAAGGGGCTGTATTTTTCTCCCGCTATATTTACGGAGTCACCTAGTGCAG” the value was 10200 fluorescence intensity (a.u.); for “GTATATACATACACTGTCGTTTAATCACACACGCCTGCTTCGGAGTCACCTAGTGCAG”, 9990 fluorescence intensity (a.u.).
